Experimental data reported in US20180207190A1, “COMPOSITION CONTAINING NAD FOR PREVENTING AND TREATING OBESITY OR IMPAIRED GLUCOSE TOLERANCE” (UNIVERSITY OF ULSAN FOUNDATION FOR INDUSTRY COOPERATION, priority 2015, published 2018).

System: C57BL/6 mice
Assay: Feeding study, single intraperitoneal administration: food intake
Format: in vivo, mouse
Protocol: Mature male C57BL/6 mice were purchased from ORIENT BIO Inc. (Gyeonggi-do, Republic of Korea). Unless stated otherwise, the mice were freely fed a standard diet (Cargill Agri Purina, Inc., Seoul, Republic of Korea). To establish a diet-induced obesity (DIO) model, the mice were fed a HFD (60% fats, Research Diet Co., New Brunswick, N.J.) for 20 weeks. The animals were raised at a controlled temperature (22±1° C.) under a 12-hour light/dark cycle (a light condition from 08:00 a.m. to 8:00 p.m.) For experiments of single administration of NAD+ and NMN, 8-week-old mice were fasted overnight, and NAD+(purchased from Sigma, administered at 0.3, 1 and 3 mg/kg) or NMN (purchased from Sigma, administered at 30, 100, and 300 mg/kg) was intraperitoneally administered to the mice between 09:00 a.m. and 10:00 a.m. For ? chronic NAD+ treatment, NAD+(0.3 mg/kg body weight/day) was intraperitoneally injected once to the mice immediately before the lights went off for 4 weeks.
A predetermined dose of NAD+ or NMN was administered to C57BL/6 mice, which were fasted overnight, during an early light phase (09:00 to 11:00) by using a given method. The same amount of a vehicle (i.e., physiological saline) was administered to the control mice.

SMILES: NC(=O)c1ccc[n+]([C@@H]2O[C@H](COP(=O)([O-])OP(=O)(O)OC[C@H]3O[C@@H](n4cnc5c(N)ncnc54)[C@H](O)[C@@H]3O)[C@@H](O)[C@H]2O)c1 [NAD+, nicotinamide adenine dinucleotide]
- effective dose of NAD+ relative to that of NMN (single IP injection, feed intake): about 1/300
- effective dose of NAD+ relative to effective dose of NMN (suppression of food intake and body weight, summary statement): at most 1/100
